The source of these data is paper PMC6696269.

The target of this assay is Zm-6&1-FEH1 C-terminally fused with nYFP (Zea mays) (UniProt B6U1H5). Kind of assay: split reporter; split-YFP; cYFP and nYFP fusions co-expressed in N. benthamiana leaves for 48 h; YFP fluorescence of leaf epidermal cells read by confocal laser scanning microscopy.

Results are given in words; binding and its absence hold for the method and conditions named. Binding seen in cells or lysates may run through a third protein. Binding can be weak; no strength is given.

In the case of “Zm-INVINH1 C-terminally fused with cYFP (from UniProt A0A1D6E1Q3)”, the binding result is “binds”.
